# Measurements taken from patent US9127073B2, “Rock2 and Rock3, two new gain-of-function variants of the cytokinin receptors AHK2 and AHK3” (Freie Universitat Berlin, priority 2009, dated 2015).
# Some entries share one result that the patent states for a list of compounds.
# B1: rock2: constitutively active gain-of-function variant of cytokinin receptor AHK2 of Arabidopsis thaliana, SEQ ID No. 1, encoded by SEQ ID No. 3 (protein, listed as Arabidopsis thaliana)
# chain: MSITCELLNLTSKKAKKSSSSDKKWLKKPLFFLILCGSLVIVLVMFLRLGRSQKEETDSCNGEEKVLYRHQNVTRSEIHDLVSLFSDSDQVTSFECHKESSPGMWTNYGITCSLSVRSDKQETRGLPWNLGLGHSISSTSCMCGNLEPILQQPENLEEENHEEGLEQGLSSYLRNAWWCLILGVLVCHKIYVSHSKARGERKEKVHLQEALAPKKQQQRAQTSSRGAGRWRKNILLLGILGGVSFSVWWFWDTNEEIIMKRRETLANMCDERARVLQDQFNVSLNHVHALSILVSTFHHGKIPSAIDQRTFEEYTERTNFERPLTSGVAYALKVPHSEREKFEKEHGWAIKKMETEDQTVVQDCVPENFDPAPIQDEYAPVIFAQETVSHIVSVDMMSGEEDRENILRARASGKGVLTSPFKLLKSNHLGVVLTFAVYDTSLPPDATEEQRVEATIGYLGASYDMPSLVEKLLHQLASKQTIAVDVYDTTNTSGLIKMYGSEIGDISEQHISSLDFGDPSRNHEMHCRFKHKLPIPWTAITPSILVLVITFFVGYILYEAINRIATVEEDCQKMRELKARAEAADIAKSQFLATVSHEIRTPMNGVLGMLKMLMDTDLDAKQMDYAQTAHGSGKDLTSLINEVLDQAKIESGRLELENVPFDMRFILDNVSSLLSGKANEKGIELAVYVSSQVPDVVVGDPSRFRQIITNLVGNSIKFTQERGHIFISVHLADEVKEPLTIEDAVLKQRLALGCSESGETVSGFPAVNAWGSWKNFKTCYSTESQNSDQIKLLVTVEDTGVGIPVDAQGRIFTPFMQADSSTSRTYGGTGIGLSISKRLVELMQGEMGFVSEPGIGSTFSFTGVFGKAETNTSITKLERFDLAIQEFTGLRALVIDNRNIRAEVTRYELRRLGISADIVSSLRMACTCCISKLENLAMILIDKDAWNKEEFSVLDELFTRSKVTFTRVPKIFLLATSATLTERSEMKSTGLIDEVVIKPLRMSVLICCLQETLVNGKKRQPNRQRRNLGHLLREKQILVVDDNLVNRRVAEGALKKYGAIVTCVESGKAALAMLKPPHNFDACFMDLQMPEMDGFEATRRVRELEREINKKIASGEVSAEMFCKFSSWHVPILAMTADVIQATHEECMKCGMDGYVSKPFEEEVLYTAVARFFEPC
# B2: rock3: constitutively active gain-of-function variant of cytokinin receptor AHK3 of Arabidopsis thaliana, SEQ ID No. 2, encoded by SEQ ID No. 4 (protein, listed as Arabidopsis thaliana)
# chain: MSLFHVLGFGVKIGHLFWMLCCWFVSWFVDNGIEDKSGLLVGSVGDLEKTKMTTLKKKNKMWFWNKISSSGLKIPSFSYQFLGSVKFNKAWWRKLVVVWVVFWVLVSIWTFWYFSSQAMEKRKETLASMCDERARMLQDQFNVSMNHVQAMSILISTFHHGKIPSAIDQRTFSEYTDRISFERPLTSGVAYAMRVLHSEREEFERQQGWTIRKMYSLEQNPVHKDDYDLEALEPSPVQEEYAPVIFAQDTVSHVVSLDMLSGKEDRENVLRARSSGKGVLTAPFPLIKTNRLGVILTFAVYKRDLPSNATPKERIEATNGYLGGVFDIESLVENLLQQLASKQTILVNVYDITNHSQPISMYGTNVSADGLERVSPLIFGDPLRKHEMRCRFKQKPPWPVLSMVTSFGILVIALLVAHIIHATVSRIHKVEEDCDKMKQLKKKAEAADVAKSQFLATVSHEIRTPMNGVLGMLHMLMDTELDVTQQDYVRTAQASGKALVSLINEVLDQAKIESGKLELEEVRFDLRGILDDVLSLFSSKSQQKGVELAVYISDRVPDMLIGDPGRFRQILTNLMGNSIKFTEKGHIFVTVHLVDELFESIDGETASSPESTLSGLPVADRQRSWENFKAFSSNGHRSFEPSPPDINLIVSVEDTGVGIPVEAQSRIFTPFMQVGPSISRTHGGTGIGLSISKCLVGLMKGEIGFSSTPKVGSTFTFTAVFSNGMQPAERKNDNNQPIFSEFRGMKAVVVDHRPARAKVSWYHFQRLGIRVEVVPRVEQALHYLKIGTTTVNMILIEQEIWNREADDFIKKLQKDPLFLSPKLILLANSVESSISEALCTGIDPPIVIVKPLRASMLAATLQRGLGIGIREPPQHKGPPALILRNLLLGRKILIVDDNNVNLRVAAGALKKYGADVVCAESGIKAISLLKPPHEFDACFMDIQMPEMDGFEATRRIRDMEEEMNKRIKNGEALIVENGNKTSWHLPVLAMTADVIQATHEECLKCGMDGYVSKPFEAEQLYREVSRFFNSPSDTES
# Test system: Arabidopsis thaliana Columbia (Col-0)
# Experiment: Vegetative growth and fresh weight of mutant alleles in wild-type background
# Assay type: in vivo
# Settings: 18 days after germination (DAG)
# Experimental: The Columbia (Col-0) ecotype of Arabidopsis thaliana was used as the wild type. Plants were grown in the greenhouse on soil or under sterile conditions in Petri dishes containing ATS-medium (Estelle, M. A., and Somerville, C. (1986). Auxin-resistant mutants of Arabidopsis thaliana with an altered morphology. Mol. Gen. Genet. 206, 200-206). All plants were grown at 22° C. under long-day conditions (16 h light/8 h dark).
# In order to analyze the consequences of the rock2 and rock3 mutations in wild type, the rock2 and rock3 suppressor mutants in 35S:CKX1 background were crossed to wild-type Columbia. […] The F2 generation was screened for rock2 and rock3 plants in wild-type background (called then rock2 and rock3 mutants).
# At 18 days after germination digital pictures were taken of rosettes and the rosette diameter was measured using the Scion Image program (Scion Corporation, Frederick, Md., USA). Flowers at stage 14 were photographed and their size was also measured using the Scion Image program.
# Fresh weights were measured by weighting either rosettes, shoots without rosettes, or whole aerial parts of the plants. The final plant height and the number of siliques were determined after termination of flowering. For analysis of seed yield, plants were put into paper bags after termination of flowering. After plants were kept dry for additional three weeks, total seed weight was determined.
row,Molecule,increase of fresh weight compared to wild type [%]
1,B1,> 75
2,B2,> 75
